The list shows a part of the results. These are further read-outs of the screen, such as a control signal, another cell line or another target. No call is given for them. Compounds called inactive in the main read-out are mostly missing here. The note in brackets gives the kind of curve behind each potency; many fits are weak.
Test: qHTS Assay to Find Inhibitors of Chronic Active B-Cell Receptor Signaling
Conditions: ABC-DLBCL IkBa-CBG/CBR reporter, luminescence ratio (green luciferase fused to IkBa over red control in TMD8 lymphoma cells), 4 h
Summary of the method: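 TMD8 ABC-DLBCL cells carrying doxycycline-inducible green luciferase fused to IkappaBalpha plus unfused red luciferase were exposed to compounds (up to 46 uM) for 4 hrs at 37C. Activity came from the overlap-corrected green/red luminescence ratio.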

[1] = measured here: CBR red luminescence, cell number

SMILES	AC50 [1]	AC50 (measured here: IkBa-CBG green luminescence)
Cn1c(CN2CCCCC2)nc2cc(NC(=O)c3ccc(F)cc3)ccc21	17.8 µM [falling, partial curve, poor fit]	
Cc1ccc(NC(=O)c2ccc(Cl)c(S(=O)(=O)NCC3CCCO3)c2)c(O)c1 (stereo not given)	6.31 µM [falling, single point]	
CCOC(=O)c1c(C)[nH]c(C)c1C(=O)COC(=O)CNC(=O)C1CCCCC1	14.1 µM [rising, single point]	
CS(=O)(=O)N(Cc1ccco1)Cc1ccccc1Cl	0.103 µM [rising, full curve, poor fit]	
CCN(CC)S(=O)(=O)c1ccc(C(=O)NCc2n[nH]c(=S)n2-c2ccc(Cl)c(Cl)c2)cc1	2.51 µM [rising, full curve]	
CCCn1c(C(O)c2ccc(OC)cc2)nc2ccccc21 (stereo not given)	10.3 µM [rising, partial curve, poor fit]	
C=CCNC(=O)c1ccc(-c2nc(-c3ccccc3)cs2)cc1	7.31 µM [rising, partial curve, poor fit]	
COc1cccc(-c2coc3c(C)c4oc(=O)c(CCC(=O)O)c(C)c4cc23)c1	15.8 µM [falling, single point]	
Cc1occc1C(=O)NNC(=S)Nc1cccc([N+](=O)[O-])c1	22.4 µM [falling, single point]	
O=C1C=C(Nc2ccccc2)C(=O)c2ccccc21	1.12 µM [falling, full curve, poor fit]	
Nc1nnc(CC(=O)N/N=C/c2ccccc2OCc2ccc(F)cc2)s1	20 µM [falling, single point]	
COc1ccc([N+](=O)[O-])cc1N(CC(=O)NC(C(C)C)C(C)C)S(C)(=O)=O	35.5 µM [rising, single point]	
Cc1cc(O)c(C(C)C)cc1C1(c2cc(C(C)C)c(O)cc2C)OC(=O)c2ccccc21	17.8 µM [falling, partial curve]	31.6 µM [rising, partial curve, poor fit]
CCOc1ccc(C2c3[nH]c4ccccc4c3CCN2CCCn2cccn2)cc1 (stereo not given)	35.5 µM [falling, single point]	
N#C/C(=C1/CCCCCN1)c1nc2ccccc2s1	1 µM [falling, partial curve, poor fit]	
CC(C)NC(=O)N(C)C[C@H]1Oc2c(NC(=O)Nc3ccc(C(F)(F)F)cc3)cccc2C(=O)N([C@H](C)CO)C[C@@H]1C	6.51 µM [falling, full curve]	
CCN(Cc1ccccc1)C(=O)COC(=O)[C@@H]1CCCN1C(=O)c1cccs1	7.31 µM [rising, partial curve]	
COc1ccc(CN2C(=O)Cc3c2nc(N)c2c(N)nc(N4CCCCC4)c(C#N)c32)cc1	0.366 µM [rising, partial curve, poor fit]	
CCN(CC)c1ccc(C(=O)OCC(=O)Nc2cccc(S(=O)(=O)NC3=NCCCCC3)c2)cc1	29.1 µM [falling, single point]	
Cc1cc2ncn(/N=C/c3ccc([N+](=O)[O-])o3)c2cc1C	0.562 µM [falling, full curve, poor fit]	

SMILES	AC50 [1]	AC50 (measured here: IkBa-CBG green luminescence)
CCCCCCN1C(=O)CC(NC(=O)OCC2c3ccccc3-c3ccccc32)C/C=C\C1C(C)C (stereo not given)	20.6 µM [falling, single point]	
O=C(Nc1cccc(S(=O)(=O)N2CCOCC2)c1)c1cc(=O)[nH]c2ccccc12	13 µM [rising, single point]	
O=C(Oc1ccc(Cl)c2cccnc12)N1CCCCCC1	18.4 µM [rising, partial curve, poor fit]	
CCOc1ccc(NC(=O)C(C)Oc2ccc(C#N)cc2)cc1S(=O)(=O)N1CCCC1 (stereo not given)	0.82 µM [rising, full curve, poor fit]	
C/C(=N/NC(=O)c1ccoc1C)c1cccc(NC(=O)C(F)(F)F)c1	25.9 µM [falling, partial curve, poor fit]	
CC(C)N(C(=O)COC(=O)c1ccccc1C(=O)c1ccc(Cl)c([N+](=O)[O-])c1)C(C)C	15.8 µM [falling, partial curve, poor fit]	
CC(C)(C)N1C(=O)c2ccc(C(=O)Nc3cc(C(=O)O)cc(C(=O)O)c3)cc2C1=O	22.4 µM [falling, single point]	
COc1ccc(Br)c(C(=O)Nc2nc3ccccc3[nH]2)c1	2.51 µM [falling, partial curve, poor fit]	
C[C@@]12CC(=O)NC1N(C(=O)c1cccc(C(F)(F)F)c1)C(c1ccccc1OC(=O)c1cccc(C(F)(F)F)c1)C2 (stereo not given in full)	14.6 µM [falling, partial curve]	
CCOc1ccc(-c2csc(NC(=O)CSCC(=O)O)n2)c2ccccc12	11.2 µM [falling, partial curve]	
Cc1cccc(C(=O)NCCCN2CCCC2=O)c1	29.1 µM [rising, single point]	
O=C(OCc1ccc(F)cc1)c1ccc2ccccc2n1	7.94 µM [rising, partial curve, poor fit]	
Cc1nn(C)c(=O)n1-c1ccccc1	3.55 µM [rising, partial curve, poor fit]	
CC(NC(=O)c1cc(COc2c(F)cccc2F)on1)c1cnn(-c2ccccc2)c1 (stereo not given)	3.55 µM [rising, partial curve, poor fit]	
Cc1c(N2C(=O)/C(=C\c3ccccc3O)SC2=S)c(=O)n(-c2ccccc2)n1C	22.4 µM [falling, single point]	
O=C(O)CSc1cc(C(=O)c2ccccc2O)cn2c(=O)c3c4c(sc3nc12)CCCC4	3.55 µM [falling, single point]	
N#Cc1cn(-c2ccccc2)nc1-c1ccc2c(c1)OCCO2	2.59 µM [rising, full curve]	
COc1ccc2nc(NC(=S)N(C)C)sc2c1	20.6 µM [falling, single point]	
Fc1ccc(Cn2nnnc2C(c2cccs2)N2CCCCCC2)cc1 (stereo not given)	32.6 µM [falling, single point]	

2 entries from above in a different format:
CC(C)(C)N1C(=O)c2ccc(C(=O)Nc3cc(C(=O)O)cc(C(=O)O)c3)cc2C1=O
  AC50 [1]: 22.4 µM [falling, single point]
N#Cc1cn(-c2ccccc2)nc1-c1ccc2c(c1)OCCO2
  AC50 [1]: 2.59 µM [rising, full curve]

Reference: PubChem BioAssay AID493014 (National Center for Advancing Translational Sciences (NCATS), 2011)
